Values quoted from earlier work as cited in patent US7767881B2, “Utilization of histamine receptor h3 gene participating in body weight or food intake control” (priority 2001, dated 2010).

Test system: histamine neuron

CN1C(=O)CN=C(c2ccccc2)c2cc(Cl)ccc21 [diazepam]
histamine neuron metabolic turnover: reduce histamine neuron metabolic turnover
